In PMC6406627:
Results are given in words; binding and its absence hold for the method and conditions named. Binding seen in cells or lysates may run through a third protein. Some entries that bind do so weakly or less than the wild type.

Sequences of proteins named here, by UniProt entry; tags and fusion partners are left off. A change or cut given only in a name is not applied to a line headed by its entry.
UniProt Q12809: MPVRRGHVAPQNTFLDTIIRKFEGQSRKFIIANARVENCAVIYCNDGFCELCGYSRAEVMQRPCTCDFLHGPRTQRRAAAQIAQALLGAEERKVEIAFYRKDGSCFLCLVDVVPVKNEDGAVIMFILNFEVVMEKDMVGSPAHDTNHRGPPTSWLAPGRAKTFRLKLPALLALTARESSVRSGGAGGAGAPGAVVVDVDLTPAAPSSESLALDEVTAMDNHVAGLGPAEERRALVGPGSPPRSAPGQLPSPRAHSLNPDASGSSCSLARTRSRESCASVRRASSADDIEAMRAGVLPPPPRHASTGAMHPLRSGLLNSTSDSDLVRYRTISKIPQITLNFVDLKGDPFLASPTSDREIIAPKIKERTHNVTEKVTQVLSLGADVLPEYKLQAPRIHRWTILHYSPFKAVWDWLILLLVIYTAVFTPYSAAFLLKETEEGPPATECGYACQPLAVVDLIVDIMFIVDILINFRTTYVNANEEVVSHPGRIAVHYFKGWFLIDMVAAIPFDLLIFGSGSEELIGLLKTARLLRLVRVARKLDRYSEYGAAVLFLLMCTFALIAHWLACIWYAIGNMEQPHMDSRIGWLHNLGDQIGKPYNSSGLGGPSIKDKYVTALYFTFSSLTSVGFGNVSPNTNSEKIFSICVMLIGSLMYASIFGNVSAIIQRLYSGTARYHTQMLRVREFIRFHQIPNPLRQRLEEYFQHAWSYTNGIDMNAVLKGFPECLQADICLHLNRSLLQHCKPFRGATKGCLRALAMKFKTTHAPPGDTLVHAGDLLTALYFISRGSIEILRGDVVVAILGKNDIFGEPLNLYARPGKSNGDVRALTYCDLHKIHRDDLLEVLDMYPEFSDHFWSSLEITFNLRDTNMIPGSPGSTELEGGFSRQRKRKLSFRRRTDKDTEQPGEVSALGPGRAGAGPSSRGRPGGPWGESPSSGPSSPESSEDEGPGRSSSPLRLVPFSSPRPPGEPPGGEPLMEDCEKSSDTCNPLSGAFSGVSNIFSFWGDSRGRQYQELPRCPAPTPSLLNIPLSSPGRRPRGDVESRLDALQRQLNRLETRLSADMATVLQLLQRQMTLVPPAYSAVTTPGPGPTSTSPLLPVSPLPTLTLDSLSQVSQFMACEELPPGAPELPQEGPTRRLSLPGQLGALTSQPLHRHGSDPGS
UniProt P05556: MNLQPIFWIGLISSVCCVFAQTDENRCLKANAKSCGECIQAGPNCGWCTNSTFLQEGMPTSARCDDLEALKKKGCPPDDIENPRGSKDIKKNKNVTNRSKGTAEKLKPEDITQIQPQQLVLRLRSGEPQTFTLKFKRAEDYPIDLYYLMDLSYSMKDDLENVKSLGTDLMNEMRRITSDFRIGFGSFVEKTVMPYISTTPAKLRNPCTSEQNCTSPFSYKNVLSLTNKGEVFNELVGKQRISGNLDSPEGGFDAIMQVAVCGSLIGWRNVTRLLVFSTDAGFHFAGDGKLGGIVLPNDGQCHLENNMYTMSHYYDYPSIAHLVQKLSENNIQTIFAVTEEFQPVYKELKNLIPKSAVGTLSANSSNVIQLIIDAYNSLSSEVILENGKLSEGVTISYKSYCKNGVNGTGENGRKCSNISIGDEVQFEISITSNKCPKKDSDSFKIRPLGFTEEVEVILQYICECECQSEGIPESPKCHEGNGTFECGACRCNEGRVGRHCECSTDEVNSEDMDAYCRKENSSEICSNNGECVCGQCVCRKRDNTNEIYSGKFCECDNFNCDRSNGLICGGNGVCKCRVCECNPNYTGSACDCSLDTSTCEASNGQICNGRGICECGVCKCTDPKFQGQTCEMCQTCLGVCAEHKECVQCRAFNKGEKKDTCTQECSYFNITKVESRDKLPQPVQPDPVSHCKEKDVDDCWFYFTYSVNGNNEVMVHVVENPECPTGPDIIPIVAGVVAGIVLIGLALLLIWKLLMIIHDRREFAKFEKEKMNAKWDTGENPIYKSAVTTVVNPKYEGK

Target: voltage dependent potassium channel KV11.1 (human (endogenous in PANC-1)) (UniProt Q12809)
Experiment: co-IP; PANC-1 total lysate (1.5 mg), precleared with Protein A/G Plus-Agarose, 4 °C; cells seeded 90 min on polylysine, FN or DM plus Hypo-PSC-CM; legend: IP with anti-hERG1 mAb, blots with anti-KV11.1 or anti-β1 antibody (methods: IP with mAb-β1)

## β1 integrin (from UniProt P05556 21-798) (receptor)
  binding: binds
